Structures can show the parent of a compound that is named as a salt. The list shows a part of the results. Repeats are few or missing, and single values can be far off.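 The three strains are clinical Candida auris isolates from the CDC resistance isolate bank, from clades III, IV and I, grown in RPMI-1640 at 35°C. Growth is background-corrected OD600 relative to vehicle-only wells on the same plate; a hit meant over 50% inhibition in at least two strains plus a plate-corrected B-score above 0.1.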

Among the test systems are C. auris AR-384; C. auris AR-386; C. auris AR-387.
Holding throughout (assay): growth relative to vehicle control (OD600 ratio) (fraction); higher = less inhibition
Common to all, as to settings: 24 h

`C#Cc1cccc(Nc2ncnc3cc(OCCOC)c(OCCOC)cc23)c1` [Erlotinib HCl (OSI-744)]: the growth in the assay with C. auris AR-384 (1 µM) was 0.73; with C. auris AR-384 (10 µM), 0.55; in the assay on C. auris AR-386 (1 µM), 0.73; with C. auris AR-386 (10 µM), 0.65; with C. auris AR-387 (1 µM) it was 0.8; in the assay with C. auris AR-387 (10 µM) it was 0.82.
As for `CC(C)NCC(O)COc1ccc(CCOCC2CC2)cc1` (configuration not stated) [Betaxolol HCl], the growth turned out to be 1.17 with C. auris AR-384 (1 µM); 1.25 in the assay with C. auris AR-384 (10 µM); 1.14 in the assay on C. auris AR-386 (1 µM); 1.17 in the assay with C. auris AR-386 (10 µM); 0.82 in the assay on C. auris AR-387 (1 µM); 1.03 in the assay with C. auris AR-387 (10 µM).
Consider `CCCCCCCN(CC)CCCC(O)c1ccc(NS(C)(=O)=O)cc1` (configuration not stated) [Ibutilide Fumarate], for which the growth in the assay with C. auris AR-384 (1 µM) worked out at 0.76; in the assay with C. auris AR-384 (10 µM), 1.15; in the assay on C. auris AR-386 (1 µM) it was 1.01; with C. auris AR-386 (10 µM) it was 0.65; with C. auris AR-387 (1 µM), 0.85; with C. auris AR-387 (10 µM), 0.67.
`C#Cc1cccc(Nc2ncnc3cc4c(cc23)OCCOCCOCCO4)c1` [Icotinib]: the growth with C. auris AR-384 (1 µM) was 0.96; with C. auris AR-384 (10 µM), 0.84; in the assay on C. auris AR-386 (1 µM), 0.6; in the assay with C. auris AR-386 (10 µM), 0.81; with C. auris AR-387 (1 µM), 0.71; with C. auris AR-387 (10 µM), 0.89.
With `Nc1ccc(O)c(C(=O)O)c1` [Mesalamine], the growth in the assay with C. auris AR-384 (1 µM) came to 0.89; in the assay with C. auris AR-384 (10 µM) it was 1.26; in the assay with C. auris AR-386 (1 µM), 1.22; with C. auris AR-386 (10 µM), 1.15; in the assay with C. auris AR-387 (1 µM) it was 1.19; with C. auris AR-387 (10 µM), 1.39.
Consider `CC(C)N(CCCCOCC(=O)NS(C)(=O)=O)c1cnc(-c2ccccc2)c(-c2ccccc2)n1` [Selexipag], for which the growth with C. auris AR-384 (1 µM) came out at 1.37; in the assay with C. auris AR-384 (10 µM), 0.67; in the assay with C. auris AR-386 (1 µM) it was 0.94; in the assay with C. auris AR-386 (10 µM) it was 1.01; with C. auris AR-387 (1 µM) it was 1.23; with C. auris AR-387 (10 µM), 1.02.
Regarding `Nc1nc(Cl)nc2c1ncn2[C@@H]1O[C@H](CO)[C@@H](O)[C@@H]1F` [Clofarabine], the growth in the assay on C. auris AR-384 (1 µM) came out at 1.28; in the assay on C. auris AR-384 (10 µM), 0.72; with C. auris AR-386 (1 µM), 1.07; with C. auris AR-386 (10 µM) it was 1.01; in the assay with C. auris AR-387 (1 µM), 0.97; with C. auris AR-387 (10 µM) it was 1.3.
Regarding `COC(=O)Nc1nc2cc(C(=O)c3ccc(F)cc3)ccc2[nH]1` [Flubendazole], the growth amounted to 0.8 in the assay on C. auris AR-384 (1 µM); 0.81 in the assay with C. auris AR-384 (10 µM); 0.91 in the assay on C. auris AR-386 (1 µM); 1.03 with C. auris AR-386 (10 µM); 0.9 in the assay with C. auris AR-387 (1 µM); 0.75 in the assay with C. auris AR-387 (10 µM).
Regarding `Cc1c(C(=O)Nc2ccc(N3C[C@@H](C)O[C@@H](C)C3)nc2)cccc1-c1ccc(OC(F)(F)F)cc1` [Sonidegib (Erismodegib, NVP-LDE225)], the growth in the assay on C. auris AR-384 (1 µM) was determined as 0.78; in the assay on C. auris AR-384 (10 µM), 0.69; in the assay on C. auris AR-386 (1 µM) it was 0.68; in the assay on C. auris AR-386 (10 µM), 0.81; with C. auris AR-387 (1 µM) it was 0.73; in the assay on C. auris AR-387 (10 µM) it was 0.66.
Regarding `CC(=O)Oc1cc(C(F)(F)F)ccc1C(=O)O` [Triflusal], the growth with C. auris AR-384 (1 µM) worked out at 0.87; in the assay with C. auris AR-384 (10 µM), 0.94; in the assay with C. auris AR-386 (1 µM), 0.68; with C. auris AR-386 (10 µM), 1.09; in the assay with C. auris AR-387 (1 µM) it was 0.84; with C. auris AR-387 (10 µM), 0.72.
As for `CNC(=O)c1ccccc1Sc1ccc2c(/C=C/c3ccccn3)n[nH]c2c1` [Axitinib], the growth came to 0.78 with C. auris AR-384 (1 µM); 0.7 with C. auris AR-384 (10 µM); 0.58 in the assay on C. auris AR-386 (1 µM); 0.92 in the assay with C. auris AR-386 (10 µM); 1.19 in the assay with C. auris AR-387 (1 µM); 0.63 in the assay on C. auris AR-387 (10 µM).
For the compound `Clc1cccc(Cl)c1NC1=NCCN1` [Clonidine HCl], the growth is 0.99 with C. auris AR-384 (1 µM); 1.38 in the assay with C. auris AR-384 (10 µM); 1.04 in the assay on C. auris AR-386 (1 µM); 1.25 with C. auris AR-386 (10 µM); 0.96 in the assay on C. auris AR-387 (1 µM); 0.93 with C. auris AR-387 (10 µM).
For `C[C@]1(O)C[C@@H](c2nc(-c3ccc4ccc(-c5ccccc5)nc4c3)c3c(N)nccn32)C1` [Linsitinib (OSI-906)], the growth worked out at 0.92 with C. auris AR-384 (1 µM); 0.75 in the assay with C. auris AR-384 (10 µM); 0.77 with C. auris AR-386 (1 µM); 1.15 in the assay with C. auris AR-386 (10 µM); 1.01 in the assay with C. auris AR-387 (1 µM); 1.03 with C. auris AR-387 (10 µM).
With `O=C(O)CCCN1CCC(O[C@@H](c2ccc(Cl)cc2)c2ccccn2)CC1` [Bepotastine Besilate], the growth worked out at 0.79 with C. auris AR-384 (1 µM); 0.87 in the assay on C. auris AR-384 (10 µM); 0.96 in the assay with C. auris AR-386 (1 µM); 1.11 in the assay with C. auris AR-386 (10 µM); 0.89 in the assay on C. auris AR-387 (1 µM); 0.94 with C. auris AR-387 (10 µM).
For the compound `CCCc1nn(C)c2c(=O)[nH]c(-c3cc(S(=O)(=O)N4CCN(C)CC4)ccc3OCC)nc12` [Sildenafil Mesylate], the growth was 0.9 with C. auris AR-384 (1 µM); 0.9 in the assay with C. auris AR-384 (10 µM); 0.72 in the assay with C. auris AR-386 (1 µM); 0.97 in the assay on C. auris AR-386 (10 µM); 0.6 in the assay with C. auris AR-387 (1 µM); 0.87 with C. auris AR-387 (10 µM).
For `CCCCC(=O)O[C@]1(C(=O)CO)[C@@H](C)C[C@H]2[C@@H]3CCC4=CC(=O)C=C[C@]4(C)[C@@]3(F)[C@@H](O)C[C@@]21C` [Betamethasone Valerate], the growth in the assay with C. auris AR-384 (1 µM) came out at 0.98; with C. auris AR-384 (10 µM), 0.93; in the assay with C. auris AR-386 (1 µM), 0.92; in the assay with C. auris AR-386 (10 µM), 0.62; in the assay with C. auris AR-387 (1 µM), 0.83; with C. auris AR-387 (10 µM), 0.75.
Regarding `COc1cc(Nc2ncc3c(n2)-c2ccc(Cl)cc2C(c2c(F)cccc2OC)=NC3)ccc1C(=O)O` [Alisertib (MLN8237)], the growth came to 1.01 in the assay on C. auris AR-384 (1 µM); 0.78 in the assay on C. auris AR-384 (10 µM); 1.18 in the assay on C. auris AR-386 (1 µM); 0.96 with C. auris AR-386 (10 µM); 0.78 in the assay with C. auris AR-387 (1 µM); 0.96 in the assay with C. auris AR-387 (10 µM).
`N=C(N)Nc1ccc(C(=O)Oc2ccc3cc(C(=N)N)ccc3c2)cc1` [Nafamostat Mesylate]: the growth in the assay with C. auris AR-384 (1 µM) worked out at 1.34; in the assay on C. auris AR-384 (10 µM) it was 0.8; with C. auris AR-386 (1 µM), 1; in the assay on C. auris AR-386 (10 µM) it was 1.2; with C. auris AR-387 (1 µM), 1.1; in the assay with C. auris AR-387 (10 µM) it was 0.9.
On to `CC[C@H](CO)Nc1nc(NCc2ccccc2)c2ncn(C(C)C)c2n1` [Roscovitine (Seliciclib,CYC202)], for which the growth with C. auris AR-384 (1 µM) is 1.03; with C. auris AR-384 (10 µM), 0.98; in the assay with C. auris AR-386 (1 µM), 0.93; in the assay with C. auris AR-386 (10 µM) it was 0.53; with C. auris AR-387 (1 µM), 0.74; in the assay on C. auris AR-387 (10 µM), 0.73.
On to `CN(CCOc1ccc(CC2SC(=O)NC2=O)cc1)c1ccccn1` (configuration not stated) [Rosiglitazone HCl], for which the growth in the assay on C. auris AR-384 (1 µM) amounted to 0.9; in the assay on C. auris AR-384 (10 µM), 0.93; in the assay on C. auris AR-386 (1 µM), 1.05; in the assay with C. auris AR-386 (10 µM), 1.13; in the assay with C. auris AR-387 (1 µM), 1.22; with C. auris AR-387 (10 µM), 1.28.
For `CCN1CCN(Cc2ccc(Nc3ncc(F)c(-c4cc(F)c5nc(C)n(C(C)C)c5c4)n3)nc2)CC1`, the growth amounted to 0.92 in the assay with C. auris AR-384 (1 µM); 0.7 in the assay with C. auris AR-384 (10 µM); 1.03 with C. auris AR-386 (1 µM); 0.69 in the assay with C. auris AR-386 (10 µM); 0.81 in the assay with C. auris AR-387 (1 µM); 0.7 in the assay with C. auris AR-387 (10 µM).
`CCOc1cc(N)c(Cl)cc1C(=O)NCC1CN(Cc2ccc(F)cc2)CCO1` (configuration not stated) [Mosapride Citrate]: the growth in the assay with C. auris AR-384 (1 µM) was 0.91; in the assay on C. auris AR-384 (10 µM) it was 1.39; in the assay with C. auris AR-386 (1 µM), 1.02; with C. auris AR-386 (10 µM) it was 0.66; in the assay with C. auris AR-387 (1 µM) it was 0.69; in the assay on C. auris AR-387 (10 µM), 0.65.

The values are drawn from the supplement of paper PMC10470496.
